Record: PubChem BioAssay AID1224830 (NIAID, 2016)
Assay: 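Host factors that control LPS-induced TNF expression in human macrophages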 (primary screen). Cells: human THP-1 monocytic leukaemia cells, TNF dual-luciferase reporter clone, PMA-differentiated to macrophage-like cells. Knock-down reagent: siRNA pool against human genes, 50 nM. Timing: LPS for 4 h, given about 3 days after siRNA transfection. Challenge: bacterial LPS (TLR4 ligand), 10 ng/ml. Read-out: 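Ratio of firefly to renilla light, scaled to the plate median and expressed as a robust z-score per replicate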. Reading the numbers: TNF reporter robust z-score: higher = stronger TNF reporter response to LPS. Active means: 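a well is active when its z-score exceeds 2.8 or falls below -1.5; control wells carry no call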.
In all, the deposit lists about 18,000 reagents; this is an unselected part. Over the whole deposit, about 2,900 (16%) are marked active. 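Calls are made per well; low scores hint the gene aids the LPS response, high scores that it dampens it.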 Repeated entries: four replicate wells of each siRNA pool. Reagent sequences are not shown.

target gene	TNF reporter robust z-score	outcome
TAF1C (GeneID 9013)	-1	inactive
TAF1C (GeneID 9013)	0.42	inactive
TAF1C (GeneID 9013)	3.75	active
TAF1C (GeneID 9013)	2.29	inactive
RHOB (GeneID 388)	-1.44	inactive
RHOB (GeneID 388)	-1.18	inactive
RHOB (GeneID 388)	-0.92	inactive
RHOB (GeneID 388)	-0.45	inactive
PHF20L1 (GeneID 51105)	-0.16	inactive
PHF20L1 (GeneID 51105)	-1.6	active
PHF20L1 (GeneID 51105)	0.9	inactive
PHF20L1 (GeneID 51105)	-0.64	inactive
NXNL1 (GeneID 115861)	3.62	active
NXNL1 (GeneID 115861)	2.78	inactive
NXNL1 (GeneID 115861)	0.04	inactive
NXNL1 (GeneID 115861)	2.47	inactive
ACTC1 (GeneID 70)	0.61	inactive
ACTC1 (GeneID 70)	1.47	inactive
ACTC1 (GeneID 70)	0.67	inactive
ACTC1 (GeneID 70)	1.48	inactive
MKI67 (GeneID 4288)	0.27	inactive
MKI67 (GeneID 4288)	0.74	inactive
MKI67 (GeneID 4288)	2.08	inactive
MKI67 (GeneID 4288)	-0.54	inactive
PAQR8 (GeneID 85315)	-0.38	inactive
PAQR8 (GeneID 85315)	2.35	inactive
PAQR8 (GeneID 85315)	0.24	inactive
PAQR8 (GeneID 85315)	1.08	inactive
SLC9A7 (GeneID 84679)	0.05	inactive
SLC9A7 (GeneID 84679)	0.55	inactive
SLC9A7 (GeneID 84679)	0.41	inactive
SLC9A7 (GeneID 84679)	0.42	inactive

Further entries follow:
target gene	TNF reporter robust z-score	outcome
CMAS (GeneID 55907)	-0.87	inactive
CMAS (GeneID 55907)	-0.42	inactive
CMAS (GeneID 55907)	-0.31	inactive
CMAS (GeneID 55907)	-0.07	inactive
ADAT2 (GeneID 134637)	0.3	inactive
ADAT2 (GeneID 134637)	0.27	inactive
ADAT2 (GeneID 134637)	-0.11	inactive
ADAT2 (GeneID 134637)	1.33	inactive
ABCA12 (GeneID 26154)	-1.48	inactive
ABCA12 (GeneID 26154)	-1.38	inactive
ABCA12 (GeneID 26154)	-1.53	active
ABCA12 (GeneID 26154)	-1.21	inactive
OR5AN1 (GeneID 390195)	0.39	inactive
OR5AN1 (GeneID 390195)	0.21	inactive
OR5AN1 (GeneID 390195)	-1	inactive
OR5AN1 (GeneID 390195)	1.1	inactive
RPL18A (GeneID 6142)	0.12	inactive
RPL18A (GeneID 6142)	-0.49	inactive
RPL18A (GeneID 6142)	0.06	inactive
RPL18A (GeneID 6142)	-0.27	inactive
APOL6 (GeneID 80830)	1.18	inactive
APOL6 (GeneID 80830)	0.16	inactive
APOL6 (GeneID 80830)	0.48	inactive
APOL6 (GeneID 80830)	-0.22	inactive
RSPO4 (GeneID 343637)	-1.18	inactive
RSPO4 (GeneID 343637)	-0.41	inactive
RSPO4 (GeneID 343637)	-0.76	inactive
RSPO4 (GeneID 343637)	-0.04	inactive
CYP27A1 (GeneID 1593)	-1.92	active
CYP27A1 (GeneID 1593)	-1.68	active
CYP27A1 (GeneID 1593)	-1.91	active
CYP27A1 (GeneID 1593)	-1.65	active
NDUFA5 (GeneID 4698)	-1.84	active
NDUFA5 (GeneID 4698)	-1.26	inactive
NDUFA5 (GeneID 4698)	-0.98	inactive
NDUFA5 (GeneID 4698)	-0.97	inactive
GNAL (GeneID 2774)	1.01	inactive
GNAL (GeneID 2774)	1.15	inactive
GNAL (GeneID 2774)	1.73	inactive
GNAL (GeneID 2774)	1.41	inactive
DACT2 (GeneID 168002)	-0.08	inactive
DACT2 (GeneID 168002)	-1.19	inactive
DACT2 (GeneID 168002)	-1.2	inactive
DACT2 (GeneID 168002)	-0.72	inactive
